PubChem BioAssay AID1224826 – NIAID | 2016
Test: 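Genes that change LPS-induced Tnf promoter activity in mouse macrophages when knocked down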 (primary screen). Cells: RAW264.7 G9 macrophages from mouse bearing reporters for p65 (GFP) and the Tnf promoter (mCherry). Reagents: siRNA pool against mouse genes, 100 nM. Timing: 16 h of LPS stimulation, after 2 days of siRNA transfection. Treatment: bacterial lipopolysaccharide (Salmonella minnesota R595), 10 ng/ml. Measurement: 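Imaged Tnf reporter mCherry in nuclei, minus background, normalised per plate to the median and expressed as robust z-scores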. Direction: Tnf reporter robust z-score: higher = stronger Tnf promoter reporter signal after LPS; Tnf reporter intensity: higher = stronger Tnf promoter reporter signal. Call rule: 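Called active when robust z-score is at most -1.3, matching the median of the Tlr4 knock-down control, or over 3; control wells and wells with under 50 cells never active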. Meaning of the calls: active = Tnf reporter clearly lowered or raised; inactive = no clear change in Tnf reporter.
The deposit covers about 17,000 reagents; shown is a part drawn at random. Of all reagents, about 1,110 (6.6%) got an active call. 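Active means lowered or raised reporter signal; replicate intensities are raw and not normalised per plate.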 Reagent sequences are not shown.

no.	target gene	Tnf reporter robust z-score	fewer than 50 cells in well	Tnf reporter intensity, replicate 1	Tnf reporter intensity, replicate 2	activity call
1	Akr1c12 (GeneID 622402)	-0.48	enough cells in well	161	168	inactive
2	Epn2 (GeneID 13855)	-0.64	enough cells in well	213	94.9	inactive
3	Mrtfa (GeneID 223701)	-0.83	enough cells in well	194	145	inactive
4	Pcdh15 (GeneID 11994)	0.32	enough cells in well	300	175	inactive
5	Kcnk12 (GeneID 210741)	2.79	enough cells in well	409	230	inactive
6	Ncoa2 (GeneID 17978)	-0.03	enough cells in well	279	188	inactive
7	Nkx2-9 (GeneID 18094)	2.56	enough cells in well	334	293	inactive
8	Mmab (GeneID 77697)	-0.5	enough cells in well	247	148	inactive
9	Or2y1d (GeneID 259069)	-1.26	enough cells in well	89.6	79.5	inactive
10	Cd248 (GeneID 70445)	-0.16	enough cells in well	165	155	inactive
11	Ptprz1 (GeneID 19283)	0.12	enough cells in well	334	206	inactive
12	Mill1 (GeneID 266815)	0.5	enough cells in well	230	164	inactive
13	Plscr2 (GeneID 18828)	-0.37	enough cells in well	76	108	inactive
14	Or14j2 (GeneID 258286)	-0.67	enough cells in well	171	96	inactive
15	Mturn (GeneID 68235)	1.47	enough cells in well	327	120	inactive
16	Phka2 (GeneID 110094)	1.36	enough cells in well	253	265	inactive
17	Serinc5 (GeneID 218442)	1.23	enough cells in well	218	244	inactive
18	Bbs1 (GeneID 52028)	0.71	enough cells in well	166	220	inactive
19	Pou4f3 (GeneID 18998)	-0.51	enough cells in well	194	167	inactive
20	Adarb2 (GeneID 94191)	-0.65	enough cells in well	225	85.6	inactive
21	Kctd7 (GeneID 212919)	0.37	enough cells in well	234	136	inactive
22	Ucn (GeneID 22226)	-0.86	enough cells in well	154	173	inactive
23	Or1o4 (GeneID 258508)		fewer than 50 cells per well; well left out of calls	62.4	63	inactive
24	Abcc12 (GeneID 244562)	-0.69	enough cells in well	175	128	inactive
25	Iffo1 (GeneID 320678)	0.21	enough cells in well	91.8	175	inactive
26	Mkks (GeneID 59030)	0.77	enough cells in well	336	256	inactive
27	Fgf13 (GeneID 14168)	0.15	enough cells in well	262	255	inactive
28	Gimap3 (GeneID 83408)	0.1	enough cells in well	197	137	inactive
29	1700010I14Rik (GeneID 66931)	-1.74	enough cells in well	101	29.6	active
30	Sema5b (GeneID 20357)	3.4	enough cells in well	214	125	active
31	Defb40 (GeneID 360217)	-0.74	enough cells in well	197	76.4	inactive
32	Dsg3 (GeneID 13512)	-0.81	enough cells in well	191	128	inactive
33	Kremen1 (GeneID 84035)	-0.7	enough cells in well	207	97.8	inactive
34	Nop10 (GeneID 66181)	-1.32	enough cells in well	121	69.5	active
35	Lman2 (GeneID 66890)	0.03	enough cells in well	172	165	inactive
36	Il7 (GeneID 16196)	0.32	enough cells in well	267	165	inactive
37	Ube2j2 (GeneID 140499)	0.64	enough cells in well	279	280	inactive
38	Or52s19 (GeneID 258311)	1.26	enough cells in well	285	169	inactive
39	Naprt (GeneID 223646)	-0.2	enough cells in well	175	168	inactive
40	Nabp1 (GeneID 109019)	-1.1	enough cells in well	142	63.9	inactive
41	Spag7 (GeneID 216873)		fewer than 50 cells per well; well left out of calls	23.9	27.3	inactive
42	Aldh3b2 (GeneID 621603)	1.07	enough cells in well	197	221	inactive
43	Sap30 (GeneID 60406)	0.18	enough cells in well	321	223	inactive
44	Lgals7 (GeneID 16858)	3.3	enough cells in well	398	312	active
45	Mindy2 (GeneID 235461)	0.54	enough cells in well	200	197	inactive
46	Nfkb1 (GeneID 18033)	-1.12	enough cells in well	157	76.5	inactive
47	Egln3 (GeneID 112407)	-0.6	enough cells in well	118	112	inactive
48	Arhgef6 (GeneID 73341)	-0.92	enough cells in well	102	132	inactive
49	Uba3 (GeneID 22200)	-0.52	enough cells in well	165	218	inactive
50	Runx2 (GeneID 12393)	-2	enough cells in well	48	35.3	active
51	Tal2 (GeneID 21350)	1.05	enough cells in well	321	178	inactive
52	Fmo9 (GeneID 240894)		fewer than 50 cells per well; well left out of calls	281	175	inactive
53	Gm4792 (GeneID 215472)	3.46	enough cells in well	399	130	active
54	Hlcs (GeneID 110948)	-0.08	enough cells in well	209	203	inactive
55	Sufu (GeneID 24069)	-1.72	enough cells in well	154	59.1	active
56	Myot (GeneID 58916)	0.3	enough cells in well	241	268	inactive
57	Psma1 (GeneID 26440)	0.43	enough cells in well	277	211	inactive
58	Tox (GeneID 252838)	-1.54	enough cells in well	62.4	39.9	active

A portion from the list above:
no.	target gene	Tnf reporter robust z-score	fewer than 50 cells in well	Tnf reporter intensity, replicate 1	Tnf reporter intensity, replicate 2	activity call
27	Fgf13 (GeneID 14168)	0.15	enough cells in well	262	255	inactive
28	Gimap3 (GeneID 83408)	0.1	enough cells in well	197	137	inactive
29	1700010I14Rik (GeneID 66931)	-1.74	enough cells in well	101	29.6	active
30	Sema5b (GeneID 20357)	3.4	enough cells in well	214	125	active
31	Defb40 (GeneID 360217)	-0.74	enough cells in well	197	76.4	inactive
32	Dsg3 (GeneID 13512)	-0.81	enough cells in well	191	128	inactive
33	Kremen1 (GeneID 84035)	-0.7	enough cells in well	207	97.8	inactive
34	Nop10 (GeneID 66181)	-1.32	enough cells in well	121	69.5	active
